# Reference: PubChem BioAssay AID743121 (NCATS, 2013)
# Aim: 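Knock-downs that sensitise breast cancer cells to camptothecin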 (primary screen)
# System: MDA-MB-231 cells, a human breast cancer line
# Reagent: single siRNA against human genes, 20 nM siRNA (0.8 pmol per well)
# Timing: 120 h (drug added 48 h after transfection, read 72 h later)
# Challenge: camptothecin 20 nM (about EC30) for 72 h; vehicle 0.1% DMSO in parallel plates
# Measured: 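Cell viability by ATP luminescence (CellTiter-Glo) as % of non-targeting siRNA wells, and the log2 ratio of viability without drug over viability with camptothecin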
# Scale: log2 vehicle/camptothecin viability: higher = stronger sensitisation to camptothecin
# Active means: 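Each gene scored by redundant siRNA activity (RSA) over its individual siRNA ratios; a gene is called active at p < 0.001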
# This is one part, drawn at random, of about 26,000 reagents tested. Of all reagents, 167 (0.63%) were called active. 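Calls are per gene from RSA p-values that are not deposited; an individual active-marked siRNA can sensitise only weakly.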 The numbers tell different reagents against one gene apart. Not all columns of the deposit are shown.
Target gene,reagent no.,log2 vehicle/camptothecin viability,activity call
MBTPS1,1,-0.306,inactive
MBTPS1,2,-0.00259,inactive
MBTPS1,3,0.386,inactive
MBTPS1,4,-0.0902,inactive
MUC5AC,1,1.22,inactive
S1PR1,1,-0.148,inactive
S1PR1,2,-0.128,inactive
S1PR1,3,0.00779,inactive
S1PR1,4,0.0719,inactive
PTGR2,1,-0.387,inactive
PTGR2,2,-0.472,inactive
PTGR2,3,-0.239,inactive
PTGR2,4,-0.0478,inactive
ELAVL4,1,0.049,inactive
ELAVL4,2,-0.117,inactive
ELAVL4,3,-0.138,inactive
IL12RB2,1,-0.27,inactive
IL12RB2,2,-0.469,inactive
IL12RB2,3,-0.364,inactive
IL12RB2,4,-0.181,inactive
PRLHR,1,-0.323,inactive
PRLHR,2,-0.188,inactive
PRLHR,3,-0.339,inactive
PRLHR,4,-0.238,inactive
RAB39A,1,0.000715,inactive
RAB39A,2,0.187,inactive
RAB39A,3,-0.37,inactive
NADK,1,-0.82,inactive
NADK,2,-0.592,inactive
NADK,3,-0.302,inactive
NADK,4,-0.518,inactive

Not a retest: entries from further up.
Target gene,reagent no.,log2 vehicle/camptothecin viability,activity call
S1PR1,4,0.0719,inactive
PTGR2,1,-0.387,inactive
